Results from patent US6124449.
For some assays here: Weaker means in comparison with the reference protein, sequence or condition of that experiment. For some assays here: The exact form of at least one protein or probe is not confirmed.

Amino acid sequences for entries named in this document (tags omitted). Residues count along the entry.
UniProt P01137, 279-390: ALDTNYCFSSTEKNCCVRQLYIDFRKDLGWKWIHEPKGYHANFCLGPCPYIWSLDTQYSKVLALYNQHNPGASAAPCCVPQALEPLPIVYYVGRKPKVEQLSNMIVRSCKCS
UniProt P61812, 303-414: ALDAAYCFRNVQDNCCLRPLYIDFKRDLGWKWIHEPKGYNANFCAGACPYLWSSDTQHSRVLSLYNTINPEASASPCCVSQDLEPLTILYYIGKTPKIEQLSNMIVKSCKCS

Legend:
[1] = target: TGF-beta1 (hTGF-beta1) (Homo sapiens) (UniProt P01137); experiment: filter binding; details: 2'-F C and U, biphasic, purified recombinant protein
[2] = target: TGF-beta1 (hTGF-beta1) (Homo sapiens) (UniProt P01137); experiment: activity in cells; details: 2'-F C and U, MLEC assay, purified recombinant protein
TGF-beta2 (Homo sapiens) = TGF-beta2 (Homo sapiens) (UniProt P61812); experiment: SPR; details: 2'-F C and U; some binding, better than random RNA, slow on and off rates; lower than TGF-beta1; purified recombinant protein; label: 5'-biotin for BIAcore specificity

GGGAGGACGAUGCGGGACCCUUGUCUGCGAUUCAACUCGUAGGUUUUCUCACGUGCAGACGACUCGCCCGA [40-12]
Kd ([1]; Kd1 5.5±0.7 nM): 0.0007 nM

GGGAGGACGAUGCGGGACUCUUGUCUGCGAUUCAACUCGUAGGUCUUCUCACGUGCAGACGACUCGCCCGA [40-53]
Ki ([2]; no inhibition): > 1300 nM

GGGAGGACGAUGCGGGGGUUAUUGGGCGUCAACAUCCCCGAUUCUUUUCACGUCCAGACGACUCGCCCGA [40-03]
binding result (TGF-beta2 (Homo sapiens)): binds more weakly

GGGAGGACGAUGCGGUACAAGGUUACGCCGUCGGACCCUGCUGCCAACAUCCUCCCCAGACGACUCGCCCGA [40-20]
Ki ([2]; no inhibition though binds at nM): > 1300 nM

GGGAGGACGAUGCGGUGCCUUUAGCCUAGACCUUGUCUUCUGCCGCAGACGACUCGCCCGA [30-28]
Ki ([2]; no inhibition though binds): > 130 nM

GGGAGGACGAUGCGGUGCCUUUAGCCUGAGUAUACUGAUGUAUAUUCUCUGCCGCAGACGACUCGCCCGA [40-41]
Ki ([2]; no inhibition though binds): > 130 nM

GGGAGGACGAUGCGGUGCCUUUAGCUUAGGCAUUGCCUUCUGCCGCAGACGACUCGCCCGA [30-20]
Kd ([1]; Kd1 2.57±0.3 nM): 0.0007 nM

GGGAGGACGAUGCGGUGUCUUUAGCCUAGGUGAUUCCUUCUGCCGCAGACGACUCGCCCGA [30-10]
Ki ([2]; no inhibition though binds): > 300 nM

GGGAGGACGAUGCGGUUAAGGGCGUCAACACCGCUAUUAAACUUUCGCUUCCCAGACGACUCGCCCGA [40-31]
Kd ([1]; Kd1 8.4±2.8 nM): 0.0007 nM

GGGAGGACGAUGCGGUUAUGGGCGUCAACACCGCUAUUACAGUUUUCGCCUCCCCCAGACGACUCGCCCGA [40-60]
binding result (TGF-beta2 (Homo sapiens)): binds more weakly

GGGAGGACGAUGCGGUUAUGGGUGUCAACACCGCUAUUACAACUUUCGCCUCCCCAGACGACUCGCCCGA [40-79]
Kd ([1]; Kd1 0.6±0.1 nM): 0.0005 nM
